Reference: US20220387375A1, “TRPV1 ACTIVATION-MODULATING COMPLEX MIXTURES OF CANNABINOIDS AND/OR TERPENES” (GBS Global Biopharma, Inc., priority 2018, published 2022)
Some of these results come from one statement about several compounds together.

Amino acid sequences for entries named in this document (tags omitted).
UniProt O35433, whole entry: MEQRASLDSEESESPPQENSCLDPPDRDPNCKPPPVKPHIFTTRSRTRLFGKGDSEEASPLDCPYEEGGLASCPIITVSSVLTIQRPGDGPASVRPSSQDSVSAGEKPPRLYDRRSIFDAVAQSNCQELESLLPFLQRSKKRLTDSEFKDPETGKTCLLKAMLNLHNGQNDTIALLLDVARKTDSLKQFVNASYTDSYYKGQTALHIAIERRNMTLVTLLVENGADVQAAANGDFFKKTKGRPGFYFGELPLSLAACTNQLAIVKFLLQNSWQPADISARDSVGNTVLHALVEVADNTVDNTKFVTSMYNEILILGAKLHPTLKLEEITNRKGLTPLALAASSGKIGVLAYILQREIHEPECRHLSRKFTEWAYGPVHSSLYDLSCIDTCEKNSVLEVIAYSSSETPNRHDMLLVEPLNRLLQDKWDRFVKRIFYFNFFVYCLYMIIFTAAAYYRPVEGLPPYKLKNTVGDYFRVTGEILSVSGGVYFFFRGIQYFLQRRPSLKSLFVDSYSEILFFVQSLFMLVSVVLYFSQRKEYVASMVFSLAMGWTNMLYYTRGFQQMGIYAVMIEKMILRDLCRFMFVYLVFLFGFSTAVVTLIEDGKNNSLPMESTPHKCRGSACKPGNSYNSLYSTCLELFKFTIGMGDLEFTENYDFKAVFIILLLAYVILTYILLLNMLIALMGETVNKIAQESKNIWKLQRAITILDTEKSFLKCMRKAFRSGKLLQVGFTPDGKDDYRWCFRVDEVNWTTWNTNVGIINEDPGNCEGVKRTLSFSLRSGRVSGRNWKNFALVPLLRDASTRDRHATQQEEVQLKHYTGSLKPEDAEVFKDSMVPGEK

Target: T1, TRPV1 (Rattus norvegicus, UniProt O35433)
T1 construct: FLAG; expressed in transfected cells
Experiment: Bulk calcium assay (Fluo-4) in HEK-TRPV1 overexpressing cells
Assay type: cell-based
Settings: population-level dose responses
Method: Cells were washed and incubated with 0.2 micromolar Fluo-4 for 30 minutes at 37° C. in a standard modified Ringer's solution of the following composition (in mM): NaCl 145, KCl 2.8, CsCl 10, CaCl2 10, MgCl2 2, glucose 10, Hepes·NaOH 10, pH 7.4, 330 mOsm. Cells were transferred to 96-well plates at 50,000 cells/well and stimulated as indicated. Calcium signals were acquired using a Flexstation 3 (Molecular Devices, Sunnydale, USA). Data was analyzed using SoftMax® Pro 5 (Molecular Devices). Where indicated, nomically calcium-free external conditions were achieved by the preparation of 0 mM CaCl2 Ringer solution containing 1 mM EGTA.
The cell culture system described in U.S. patent application Ser. No. 15/986,316 was used to test the TRPV1-mediated calcium response to various terpenes. The HEK293 cell line was stably transfected with the pcDNA6TR (Invitrogen, CA) plasmid (encoding the tetracycline-sensitive TREx repressor protein), and was maintained in DMEM+10% fetal bovine serum (inactivated at 55° C. for 1 h)+2 mM glutamine in humidified 5% CO2 atmosphere at 37° C. Selection pressure on the TRex 293 cells was maintained by continuous culture in 10 μg/ml Blasticidin (Sigma, St Louis, Mo.). […]
Calcium responses mediated by TRPV1 were tested by calcium assay in the cell culture system. […] Data was analyzed using SoftMax® Pro 5 (Molecular Devices). […]

| Structure (SMILES) | lower limit of detectable calcium responses [nM] |
| --- | --- |
| C=C(C)[C@@H]1CCC(C)=C[C@H]1c1c(O)cc(CCC)cc1O [CBDV, Cannabidivarin] | 10 to 100 |
| CCCCCc1cc(O)c(C/C=C(\C)CCC=C(C)C)c(O)c1C(=O)O [CBGA, Cannabigerolic Acid] | 10 to 100 |
